{"source": "PubChem BioAssay AID743121 | NCATS | 2013", "test": "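Partners whose loss is lethal together with topoisomerase I blockade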 (primary screen)", "system": "MDA-MB-231 cells, a human breast cancer line", "reagents": "single siRNA against human genes, 20 nM siRNA (0.8 pmol per well)", "timing": "120 h (drug added 48 h after transfection, read 72 h later)", "treatment": "camptothecin 20 nM (about EC30) for 72 h; vehicle 0.1% DMSO in parallel plates", "measurement": "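CellTiter-Glo ATP signal, scaled to control siRNA as percent viability; sensitisation given as log2 of untreated divided by camptothecin-treated viability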", "direction": "log2 vehicle/camptothecin viability: higher = stronger sensitisation to camptothecin; viability with camptothecin: higher = more viable cells", "units": "viability with camptothecin in % of control", "rule for the call": "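Each gene scored by redundant siRNA activity (RSA) over its individual siRNA ratios; a gene is called active at p < 0.001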", "note": "The deposit covers about 26,000 reagents; this is an unselected part. Of all reagents, 167 (0.63%) are marked active. 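Calls are per gene from RSA p-values that are not deposited; an individual active-marked siRNA can sensitise only weakly.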 Reagents against one gene are numbered here. Not all columns of the deposit are shown. No sequences are given here."}
{"gene symbol": "PIK3C2B", "reagent no.": 1, "log2 vehicle/camptothecin viability": -0.147, "viability with camptothecin": 46.5, "activity call": "inactive"}
{"gene symbol": "PIK3C2B", "reagent no.": 2, "log2 vehicle/camptothecin viability": -0.086, "viability with camptothecin": 98.6, "activity call": "inactive"}
{"gene symbol": "PIK3C2B", "reagent no.": 3, "log2 vehicle/camptothecin viability": -0.279, "viability with camptothecin": 106, "activity call": "inactive"}
{"gene symbol": "PIK3C2B", "reagent no.": 4, "log2 vehicle/camptothecin viability": -0.209, "viability with camptothecin": 119, "activity call": "inactive"}
{"gene symbol": "TSSC4", "reagent no.": 1, "log2 vehicle/camptothecin viability": -0.345, "viability with camptothecin": 59.9, "activity call": "inactive"}
{"gene symbol": "TSSC4", "reagent no.": 2, "log2 vehicle/camptothecin viability": 0.292, "viability with camptothecin": 21.9, "activity call": "inactive"}
{"gene symbol": "TSSC4", "reagent no.": 3, "log2 vehicle/camptothecin viability": 0.0939, "viability with camptothecin": 18.2, "activity call": "inactive"}
{"gene symbol": "IL1RAP", "reagent no.": 1, "log2 vehicle/camptothecin viability": -0.0093, "viability with camptothecin": 114, "activity call": "inactive"}
{"gene symbol": "IL1RAP", "reagent no.": 2, "log2 vehicle/camptothecin viability": -0.436, "viability with camptothecin": 19.5, "activity call": "inactive"}
{"gene symbol": "IL1RAP", "reagent no.": 3, "log2 vehicle/camptothecin viability": -0.273, "viability with camptothecin": 118, "activity call": "inactive"}
{"gene symbol": "IL1RAP", "reagent no.": 4, "log2 vehicle/camptothecin viability": 0.00143, "viability with camptothecin": 99.6, "activity call": "inactive"}
{"gene symbol": "ERC1", "reagent no.": 1, "log2 vehicle/camptothecin viability": -0.125, "viability with camptothecin": 102, "activity call": "inactive"}
{"gene symbol": "ERC1", "reagent no.": 2, "log2 vehicle/camptothecin viability": -0.433, "viability with camptothecin": 94.5, "activity call": "inactive"}
{"gene symbol": "ERC1", "reagent no.": 3, "log2 vehicle/camptothecin viability": -0.27, "viability with camptothecin": 114, "activity call": "inactive"}
{"gene symbol": "ERC1", "reagent no.": 4, "log2 vehicle/camptothecin viability": -0.171, "viability with camptothecin": 117, "activity call": "inactive"}

Sorted by “viability with camptothecin” (high to low): some entries from above
{"gene symbol": "IL1RAP", "reagent no.": 3, "log2 vehicle/camptothecin viability": -0.273, "viability with camptothecin": 118, "activity call": "inactive"}
{"gene symbol": "IL1RAP", "reagent no.": 2, "log2 vehicle/camptothecin viability": -0.436, "viability with camptothecin": 19.5, "activity call": "inactive"}
